From the supplement of paper PMC10849652
The list shows a part of the results.

Protein sequences, listed by entry. Tags and fused reporters are not part of them. Lines headed by an entry give the natural chain unless they say otherwise; changes in a name come on top.
UniProt Q7Z7B1: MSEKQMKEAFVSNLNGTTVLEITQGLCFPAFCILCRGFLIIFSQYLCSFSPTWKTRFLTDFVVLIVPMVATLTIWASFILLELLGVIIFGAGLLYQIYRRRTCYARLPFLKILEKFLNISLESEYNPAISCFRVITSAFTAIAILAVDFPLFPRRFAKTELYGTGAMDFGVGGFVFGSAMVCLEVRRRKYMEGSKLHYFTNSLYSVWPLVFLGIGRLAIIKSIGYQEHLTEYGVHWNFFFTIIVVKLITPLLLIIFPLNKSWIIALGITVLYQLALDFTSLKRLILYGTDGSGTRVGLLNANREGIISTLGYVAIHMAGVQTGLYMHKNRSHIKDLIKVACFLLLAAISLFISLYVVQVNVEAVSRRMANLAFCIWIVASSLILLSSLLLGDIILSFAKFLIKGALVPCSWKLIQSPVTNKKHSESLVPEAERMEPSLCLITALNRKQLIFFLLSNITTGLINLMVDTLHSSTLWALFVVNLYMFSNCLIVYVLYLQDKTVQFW
UniProt P12273: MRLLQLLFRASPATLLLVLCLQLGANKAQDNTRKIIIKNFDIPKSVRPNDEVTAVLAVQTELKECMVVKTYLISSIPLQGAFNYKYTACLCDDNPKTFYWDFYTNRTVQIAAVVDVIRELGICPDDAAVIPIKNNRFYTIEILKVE
UniProt Q32M88: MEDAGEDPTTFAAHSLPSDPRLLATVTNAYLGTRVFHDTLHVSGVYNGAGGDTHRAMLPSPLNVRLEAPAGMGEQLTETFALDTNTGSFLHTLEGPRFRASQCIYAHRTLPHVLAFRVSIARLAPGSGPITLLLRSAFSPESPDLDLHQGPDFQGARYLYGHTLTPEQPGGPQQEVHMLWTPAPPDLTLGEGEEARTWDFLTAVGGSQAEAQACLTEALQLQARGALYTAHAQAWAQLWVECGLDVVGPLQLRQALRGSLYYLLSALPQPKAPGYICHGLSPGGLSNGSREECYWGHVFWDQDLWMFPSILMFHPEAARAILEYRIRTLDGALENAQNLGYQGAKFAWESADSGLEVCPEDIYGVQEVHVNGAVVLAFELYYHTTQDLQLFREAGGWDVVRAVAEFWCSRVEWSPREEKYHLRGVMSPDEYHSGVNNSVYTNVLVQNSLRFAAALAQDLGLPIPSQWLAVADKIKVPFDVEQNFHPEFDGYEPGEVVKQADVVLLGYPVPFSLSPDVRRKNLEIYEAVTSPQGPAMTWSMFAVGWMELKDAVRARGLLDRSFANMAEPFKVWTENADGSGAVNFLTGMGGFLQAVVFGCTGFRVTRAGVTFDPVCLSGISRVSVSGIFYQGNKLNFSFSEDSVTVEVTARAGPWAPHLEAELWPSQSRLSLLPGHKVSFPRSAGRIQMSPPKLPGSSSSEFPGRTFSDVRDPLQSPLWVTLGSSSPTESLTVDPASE
UniProt Q9NQP4, whole entry, looked up: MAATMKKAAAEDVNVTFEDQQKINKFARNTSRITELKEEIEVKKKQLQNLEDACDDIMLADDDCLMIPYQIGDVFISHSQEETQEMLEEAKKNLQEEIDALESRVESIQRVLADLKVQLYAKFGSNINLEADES
UniProt Q92643: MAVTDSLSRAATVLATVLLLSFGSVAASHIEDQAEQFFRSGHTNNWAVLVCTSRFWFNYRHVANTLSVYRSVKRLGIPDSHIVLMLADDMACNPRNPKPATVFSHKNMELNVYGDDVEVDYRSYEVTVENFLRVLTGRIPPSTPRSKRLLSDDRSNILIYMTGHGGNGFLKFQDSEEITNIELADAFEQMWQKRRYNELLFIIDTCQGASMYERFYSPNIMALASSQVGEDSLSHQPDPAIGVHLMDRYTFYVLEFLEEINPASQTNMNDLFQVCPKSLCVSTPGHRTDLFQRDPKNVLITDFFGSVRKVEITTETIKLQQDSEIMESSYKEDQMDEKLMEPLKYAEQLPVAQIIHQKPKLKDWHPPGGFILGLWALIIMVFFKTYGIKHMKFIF
UniProt Q93100: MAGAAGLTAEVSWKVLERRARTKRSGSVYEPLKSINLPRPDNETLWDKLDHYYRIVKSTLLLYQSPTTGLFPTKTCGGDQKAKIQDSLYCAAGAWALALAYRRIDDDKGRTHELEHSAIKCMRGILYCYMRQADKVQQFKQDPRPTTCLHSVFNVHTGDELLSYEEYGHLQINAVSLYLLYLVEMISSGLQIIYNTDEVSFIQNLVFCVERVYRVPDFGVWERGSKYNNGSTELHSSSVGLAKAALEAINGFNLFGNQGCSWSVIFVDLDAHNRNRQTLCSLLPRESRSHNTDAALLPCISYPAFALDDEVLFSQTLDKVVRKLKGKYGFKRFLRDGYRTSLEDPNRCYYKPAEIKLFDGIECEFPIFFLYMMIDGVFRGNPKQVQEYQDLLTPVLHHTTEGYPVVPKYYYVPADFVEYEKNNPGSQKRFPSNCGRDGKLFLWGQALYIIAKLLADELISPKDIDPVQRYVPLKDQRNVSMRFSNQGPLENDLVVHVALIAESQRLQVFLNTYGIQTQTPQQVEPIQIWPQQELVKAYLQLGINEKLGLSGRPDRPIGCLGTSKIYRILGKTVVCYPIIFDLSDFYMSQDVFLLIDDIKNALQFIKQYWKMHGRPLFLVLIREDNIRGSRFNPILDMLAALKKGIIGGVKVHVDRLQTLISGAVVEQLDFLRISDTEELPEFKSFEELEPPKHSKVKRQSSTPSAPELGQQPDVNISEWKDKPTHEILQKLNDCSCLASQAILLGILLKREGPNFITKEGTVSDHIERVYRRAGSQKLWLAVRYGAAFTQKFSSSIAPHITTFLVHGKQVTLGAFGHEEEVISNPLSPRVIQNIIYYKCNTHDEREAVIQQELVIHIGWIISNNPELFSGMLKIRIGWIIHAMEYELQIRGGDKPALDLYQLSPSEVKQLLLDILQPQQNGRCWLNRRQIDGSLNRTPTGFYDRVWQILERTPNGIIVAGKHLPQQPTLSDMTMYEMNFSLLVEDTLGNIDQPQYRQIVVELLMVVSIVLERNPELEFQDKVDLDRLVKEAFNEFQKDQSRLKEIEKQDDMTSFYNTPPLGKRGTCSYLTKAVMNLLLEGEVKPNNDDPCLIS
UniProt Q13393: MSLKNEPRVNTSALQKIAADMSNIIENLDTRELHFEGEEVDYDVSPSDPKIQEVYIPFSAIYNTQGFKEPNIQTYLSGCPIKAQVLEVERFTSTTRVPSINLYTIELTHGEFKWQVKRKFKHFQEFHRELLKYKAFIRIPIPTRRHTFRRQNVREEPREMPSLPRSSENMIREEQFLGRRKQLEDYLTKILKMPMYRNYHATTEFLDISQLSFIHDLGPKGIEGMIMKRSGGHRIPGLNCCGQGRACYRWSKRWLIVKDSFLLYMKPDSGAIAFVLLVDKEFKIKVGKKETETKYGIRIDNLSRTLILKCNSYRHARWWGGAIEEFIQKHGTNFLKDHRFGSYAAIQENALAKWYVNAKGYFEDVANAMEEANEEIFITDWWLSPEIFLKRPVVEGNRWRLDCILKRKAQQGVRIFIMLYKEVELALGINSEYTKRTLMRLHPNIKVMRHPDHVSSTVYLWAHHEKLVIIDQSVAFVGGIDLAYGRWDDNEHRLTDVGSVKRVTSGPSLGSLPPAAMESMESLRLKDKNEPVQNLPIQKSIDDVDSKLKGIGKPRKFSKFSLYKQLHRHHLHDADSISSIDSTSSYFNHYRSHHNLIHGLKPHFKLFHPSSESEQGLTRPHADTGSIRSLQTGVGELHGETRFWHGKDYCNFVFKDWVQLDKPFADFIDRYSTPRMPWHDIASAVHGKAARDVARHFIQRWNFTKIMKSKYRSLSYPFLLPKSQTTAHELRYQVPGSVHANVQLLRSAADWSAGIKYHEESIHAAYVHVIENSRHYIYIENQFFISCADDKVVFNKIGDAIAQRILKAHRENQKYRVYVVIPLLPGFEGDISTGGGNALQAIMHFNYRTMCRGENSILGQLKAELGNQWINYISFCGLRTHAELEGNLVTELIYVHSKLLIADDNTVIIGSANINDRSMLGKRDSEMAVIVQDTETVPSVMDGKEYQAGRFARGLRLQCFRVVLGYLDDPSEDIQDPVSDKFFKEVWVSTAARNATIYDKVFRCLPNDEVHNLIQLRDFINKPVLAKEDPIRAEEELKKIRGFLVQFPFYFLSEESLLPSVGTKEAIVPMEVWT
UniProt O15212, whole entry, looked up: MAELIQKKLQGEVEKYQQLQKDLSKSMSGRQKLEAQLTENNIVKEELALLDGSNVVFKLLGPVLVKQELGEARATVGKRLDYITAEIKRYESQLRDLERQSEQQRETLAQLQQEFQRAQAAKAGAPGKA
UniProt O00264: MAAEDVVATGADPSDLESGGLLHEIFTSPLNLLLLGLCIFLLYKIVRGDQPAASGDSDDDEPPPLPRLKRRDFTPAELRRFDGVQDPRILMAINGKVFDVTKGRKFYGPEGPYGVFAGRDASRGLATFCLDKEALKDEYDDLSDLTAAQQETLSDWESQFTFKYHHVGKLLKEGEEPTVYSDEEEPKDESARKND
UniProt Q8N0Y7: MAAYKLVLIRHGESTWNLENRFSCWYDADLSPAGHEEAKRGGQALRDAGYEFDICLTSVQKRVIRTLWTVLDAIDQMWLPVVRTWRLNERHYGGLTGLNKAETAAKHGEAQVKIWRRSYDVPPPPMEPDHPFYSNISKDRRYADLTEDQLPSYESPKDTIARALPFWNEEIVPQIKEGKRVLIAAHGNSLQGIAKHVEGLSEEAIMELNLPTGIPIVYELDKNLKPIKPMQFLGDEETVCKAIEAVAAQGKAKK
UniProt O95394: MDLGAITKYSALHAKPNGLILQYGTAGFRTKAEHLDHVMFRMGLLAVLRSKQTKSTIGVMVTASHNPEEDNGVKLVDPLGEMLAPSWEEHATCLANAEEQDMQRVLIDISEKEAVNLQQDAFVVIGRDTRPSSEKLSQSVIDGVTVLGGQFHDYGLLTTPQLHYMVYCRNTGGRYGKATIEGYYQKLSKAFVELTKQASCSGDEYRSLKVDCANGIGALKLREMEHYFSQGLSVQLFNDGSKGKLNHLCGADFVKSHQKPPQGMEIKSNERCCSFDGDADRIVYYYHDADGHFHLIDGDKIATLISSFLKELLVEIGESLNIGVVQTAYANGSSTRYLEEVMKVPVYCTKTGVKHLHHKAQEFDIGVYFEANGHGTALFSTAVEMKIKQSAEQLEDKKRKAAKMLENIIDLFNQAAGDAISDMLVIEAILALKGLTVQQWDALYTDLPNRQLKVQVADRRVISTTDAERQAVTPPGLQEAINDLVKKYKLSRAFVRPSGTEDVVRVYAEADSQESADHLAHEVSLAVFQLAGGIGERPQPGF
UniProt O60825: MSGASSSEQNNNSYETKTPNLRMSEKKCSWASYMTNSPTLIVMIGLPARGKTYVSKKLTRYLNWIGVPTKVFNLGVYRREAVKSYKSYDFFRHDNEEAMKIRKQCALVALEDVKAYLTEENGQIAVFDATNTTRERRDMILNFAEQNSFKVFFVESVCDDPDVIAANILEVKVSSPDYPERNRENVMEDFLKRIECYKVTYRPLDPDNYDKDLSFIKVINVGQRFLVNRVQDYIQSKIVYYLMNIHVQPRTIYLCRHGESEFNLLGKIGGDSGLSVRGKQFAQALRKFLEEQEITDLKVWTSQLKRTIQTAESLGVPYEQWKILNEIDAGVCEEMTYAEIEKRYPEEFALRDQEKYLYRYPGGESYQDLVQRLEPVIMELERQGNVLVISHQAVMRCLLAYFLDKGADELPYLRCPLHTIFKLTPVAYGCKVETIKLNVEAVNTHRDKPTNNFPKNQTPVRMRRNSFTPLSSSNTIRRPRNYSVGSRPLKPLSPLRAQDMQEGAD
UniProt Q01813: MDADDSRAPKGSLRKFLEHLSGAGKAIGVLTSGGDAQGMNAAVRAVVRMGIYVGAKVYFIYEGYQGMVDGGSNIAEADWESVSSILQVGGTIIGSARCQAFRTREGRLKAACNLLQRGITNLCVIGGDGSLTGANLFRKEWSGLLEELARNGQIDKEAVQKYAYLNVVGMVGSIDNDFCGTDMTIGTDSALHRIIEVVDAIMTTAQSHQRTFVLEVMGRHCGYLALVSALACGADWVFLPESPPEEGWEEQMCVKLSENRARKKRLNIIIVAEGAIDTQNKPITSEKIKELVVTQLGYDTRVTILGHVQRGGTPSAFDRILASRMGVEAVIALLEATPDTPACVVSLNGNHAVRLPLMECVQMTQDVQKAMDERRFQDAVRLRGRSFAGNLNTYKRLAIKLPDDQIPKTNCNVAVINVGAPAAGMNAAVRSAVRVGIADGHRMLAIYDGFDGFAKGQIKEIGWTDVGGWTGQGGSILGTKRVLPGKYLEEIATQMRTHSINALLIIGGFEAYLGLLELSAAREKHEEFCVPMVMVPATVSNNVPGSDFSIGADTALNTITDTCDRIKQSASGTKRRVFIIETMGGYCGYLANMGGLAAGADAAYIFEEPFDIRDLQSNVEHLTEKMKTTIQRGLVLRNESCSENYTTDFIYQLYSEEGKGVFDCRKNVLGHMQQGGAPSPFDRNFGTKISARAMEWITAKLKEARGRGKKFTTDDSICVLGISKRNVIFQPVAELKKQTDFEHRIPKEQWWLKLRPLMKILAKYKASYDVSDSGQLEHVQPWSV

What was measured:
Assay in all cases: log2 fold change, soluble protein after heating vs DMSO (PISA); higher = thermal stabilisation; K562 cells, 10 uM, 30 min; active = over 0.2 and 3.5 SD of the protein, either way, in both replicates (recomputed)
[1] = compound: NC(=O)Nc1cc(-c2cccc(F)c2)sc1C(=O)N[C@H]1CCCNC1
Method in brief: (§1)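 K562 cells at 2×10^6 cells/mL were exposed to 10 μM compound for 30 min, then aliquots were heated for 3 min across 48°C-58°C, pooled, and extracted in PBS containing 0.5% NP-40 at 4°C. The supernatant after 21,000xg for 90 min was taken as soluble protein and measured by TMTpro 16plex LC-MS/MS with channel sums equalised. Thermal stability is reported relative to control samples, with values from duplicates. Fold changes are given on a log2 scale.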

[2] = compound: NC(=O)c1cnc(N[C@@H]2CCCC[C@@H]2N)nc1Nc1cccc(-n2nccn2)c1
Method in brief: as §1

[3] = compound: NC1(c2ccc(-c3nc4ccn5c(=O)[nH]nc5c4cc3-c3ccccc3)cc2)CCC1
Method in brief: as §1

[4] = compound: NCC(=O)Nc1ccc(-n2nc(C(F)(F)F)cc2-c2ccc3c(ccc4ccccc43)c2)cc1
Method in brief: as §1

entinostat = compound: Nc1ccccc1NC(=O)c1ccc(CNC(=O)OCc2cccnc2)cc1 [entinostat]
Method in brief: as §1

vorinostat = compound: O=C(CCCCCCC(=O)Nc1ccccc1)NO [vorinostat]
Method in brief: as §1

citarinostat = compound: O=C(CCCCCCNC(=O)c1cnc(N(c2ccccc2)c2ccccc2Cl)nc1)NO [citarinostat]
Method in brief: as §1

silmitasertib = compound: O=C(O)c1ccc2c(c1)nc(Nc1cccc(Cl)c1)c1ccncc12 [silmitasertib]
Method in brief: as §1

[5] = compound: O=C1NC(=O)C(c2cnc3ccccn23)=C1c1cn2c3c(cc(F)cc13)CN(C(=O)N1CCCCC1)CC2
Method in brief: as §1

[6] = compound: c1cc(OCCN2CCCCC2)cc(-c2n[nH]c3ccc(-c4nnc[nH]4)cc23)c1
Method in brief: as §1

Target | log2 fold change [1] | log2 fold change [2] | log2 fold change [3] | log2 fold change [4] | log2 fold change (entinostat) | log2 fold change (vorinostat) | log2 fold change (citarinostat) | log2 fold change (silmitasertib) | log2 fold change [5] | log2 fold change [6]
PIGW (UniProt Q7Z7B1) | inactive: 0.048 | inactive: -0.012 | inactive: -0.121 | inactive: -0.084 | inactive: 0.006 | inactive: -0.027 | inactive: 0.009 | inactive: -0.045 | inactive: -0.015 | inactive: 0.071
PIP (UniProt P12273) | inactive: 1.13 | inactive: 0.153 | inactive: 0.208 | inactive: 0.225 | inactive: 0.302 | inactive: 0.153 | inactive: -0.553 | inactive: -0.122 | inactive: 0.011 | inactive: 0.541
PIK3R2 (UniProt O00459) | inactive: -0.01 | inactive: -0.05 | inactive: 0.027 | inactive: 0.032 | inactive: 0.099 | inactive: -0.051 | inactive: 0.14 | inactive: 0.031 | inactive: 0.016 | inactive: -0.048
PIGA (UniProt P37287) | inactive: 0.063 | inactive: 0.099 | inactive: -0.066 | inactive: -0.046 | inactive: -0.067 | inactive: -0.085 | inactive: 0 | inactive: 0.029 | inactive: -0.065 | inactive: -0.049
PLAA (UniProt Q9Y263) | inactive: -0.022 | inactive: -0.063 | inactive: -0.118 | inactive: -0.081 | inactive: 0.033 | inactive: 0.111 | inactive: 0.029 | inactive: 0.025 | inactive: -0.116 | inactive: -0.092
PGGHG (UniProt Q32M88) | inactive: -0.036 | inactive: -0.155 | inactive: -0.051 | inactive: 0.083 | inactive: -0.033 | inactive: 0.019 | inactive: -0.009 | inactive: 0.073 | inactive: -0.076 | inactive: 0.058
PFDN4 (UniProt Q9NQP4) | inactive: 0.001 | inactive: 0.012 | inactive: 0.108 | inactive: 0.054 | inactive: -0.003 | inactive: -0.074 | inactive: -0.079 | inactive: -0.034 | inactive: -0.05 | inactive: -0.012
PIGK (UniProt Q92643) | inactive: -0.031 | inactive: 0.005 | inactive: -0.046 | inactive: -0.01 | inactive: 0.023 | inactive: -0.077 | inactive: 0.034 | inactive: 0.016 | inactive: -0.086 | inactive: -0.043
PGAM5 (UniProt Q96HS1) | inactive: 0.068 | inactive: 0.066 | inactive: 0.194 | inactive: 0.04 | inactive: -0.006 | inactive: 0.019 | inactive: -0.098 | inactive: 0.13 | inactive: 0.187 | inactive: -0.093
PEX6 (UniProt Q13608) | inactive: -0.01 | inactive: -0.025 | inactive: -0.025 | inactive: 0.044 | inactive: 0.01 | inactive: 0.033 | inactive: 0 | inactive: 0.006 | inactive: -0.062 | inactive: -0.04
PITPNA (UniProt Q00169) | inactive: 0.022 | inactive: 0.005 | inactive: 0.012 | inactive: -0.054 | inactive: -0.027 | inactive: -0.024 | inactive: 0.049 | inactive: -0.009 | inactive: -0.011 | inactive: 0.017
PIK3R1 (UniProt P27986) | inactive: -0.08 | inactive: -0.056 | inactive: -0.016 | inactive: -0.021 | inactive: -0.026 | inactive: 0.029 | inactive: 0.007 | inactive: -0.013 | inactive: 0.028 | inactive: 0.126
PFKM isoform 3 (UniProt P08237) | inactive: 0 | inactive: 0 | inactive: -0.032 | inactive: 0 | inactive: -0.016 | inactive: 0.011 | inactive: 0.015 | inactive: 0.014 | inactive: -0.03 | inactive: -0.007
PHKB isoform 3 (UniProt Q93100) | inactive: 0.012 | inactive: -0.051 | inactive: -0.123 | inactive: -0.037 | inactive: -0.032 | inactive: 0.022 | inactive: 0.022 | inactive: 0.049 | inactive: -0.025 | inactive: 0.096
PKN1 isoform 2 (UniProt Q16512) | active: -0.508 | inactive: -0.141 | inactive: -0.118 | inactive: -0.128 | inactive: 0.039 | inactive: 0.042 | inactive: 0.024 | inactive: 0.024 | inactive: -0.131 | inactive: -0.157
PI4KA (UniProt P42356) | inactive: 0.094 | inactive: 0.012 | inactive: -0.06 | inactive: 0.025 | inactive: -0.016 | inactive: 0.095 | inactive: -0.013 | inactive: 0.071 | inactive: 0.124 | inactive: -0.167
PLD1 (UniProt Q13393) | inactive: -0.1 | inactive: -0.224 | inactive: -0.182 | inactive: -0.035 | inactive: 0.048 | inactive: 0.042 | inactive: 0.146 | inactive: 0.098 | inactive: -0.012 | inactive: -0.243
PIH1D1 (UniProt Q9NWS0) | inactive: -0.017 | inactive: 0.018 | inactive: -0.078 | inactive: -0.025 | inactive: 0.03 | inactive: 0.074 | inactive: 0.041 | inactive: -0.025 | inactive: 0.085 | inactive: 0.005
PFDN6 (UniProt O15212) | inactive: 0.031 | inactive: -0.002 | inactive: 0.025 | inactive: 0.06 | inactive: 0.013 | inactive: 0.018 | inactive: 0.075 | inactive: -0.036 | inactive: 0.062 | inactive: -0.019
PGRMC1 (UniProt O00264) | inactive: 0.002 | inactive: 0 | inactive: 0.068 | inactive: 0.085 | inactive: 0.027 | inactive: -0.053 | inactive: -0.046 | inactive: -0.01 | inactive: -0.029 | inactive: -0.018
PGAM4 (UniProt Q8N0Y7) | inactive: 0.034 | inactive: 0.034 | inactive: 0.02 | inactive: 0.021 | inactive: -0.047 | inactive: -0.03 | inactive: 0.01 | inactive: -0.018 | inactive: -0.024 | inactive: 0.025
PHB2 (UniProt Q99623) | inactive: 0.037 | inactive: -0.014 | inactive: -0.014 | inactive: 0.003 | inactive: -0.004 | inactive: -0.006 | inactive: 0.012 | inactive: -0.01 | inactive: 0.029 | inactive: -0.008
PGM3 isoform 4 (UniProt O95394) | inactive: -0.039 | inactive: -0.118 | inactive: -0.147 | inactive: -0.063 | inactive: 0.015 | inactive: 0.061 | inactive: 0.046 | inactive: -0.012 | inactive: -0.008 | inactive: -0.024
PLCL1 (UniProt Q15111) | inactive: 0.05 | inactive: -0.035 | inactive: -0.069 | inactive: -0.01 | inactive: 0.043 | inactive: -0.012 | inactive: 0.02 | inactive: -0.475 | active: -0.854 | inactive: 0.05
PFKFB2 (UniProt O60825) | inactive: 0.003 | inactive: -0.009 | inactive: -0.08 | inactive: -0.026 | inactive: 0.006 | inactive: 0 | inactive: 0.018 | inactive: -0.052 | inactive: -0.01 | inactive: 0.007
PFKP (UniProt Q01813) | inactive: 0.004 | inactive: 0.018 | inactive: -0.013 | inactive: -0.004 | inactive: -0.024 | inactive: 0.024 | inactive: -0.031 | inactive: -0.074 | inactive: -0.054 | inactive: -0.006
PKM isoform 2 (UniProt P14618) | inactive: 0.123 | inactive: 0.175 | inactive: -0.063 | inactive: 0.116 | inactive: 0.05 | inactive: -0.195 | inactive: -0.075 | inactive: -0.052 | inactive: 0.043 | inactive: -0.093

Exported as tab-separated lines: part of the list above.
Target	log2 fold change [1]	log2 fold change [2]	log2 fold change [3]	log2 fold change [4]	log2 fold change (entinostat)	log2 fold change (vorinostat)	log2 fold change (citarinostat)	log2 fold change (silmitasertib)	log2 fold change [5]	log2 fold change [6]
PIGA (UniProt P37287)	inactive: 0.063	inactive: 0.099	inactive: -0.066	inactive: -0.046	inactive: -0.067	inactive: -0.085	inactive: 0	inactive: 0.029	inactive: -0.065	inactive: -0.049
PLAA (UniProt Q9Y263)	inactive: -0.022	inactive: -0.063	inactive: -0.118	inactive: -0.081	inactive: 0.033	inactive: 0.111	inactive: 0.029	inactive: 0.025	inactive: -0.116	inactive: -0.092
PGGHG (UniProt Q32M88)	inactive: -0.036	inactive: -0.155	inactive: -0.051	inactive: 0.083	inactive: -0.033	inactive: 0.019	inactive: -0.009	inactive: 0.073	inactive: -0.076	inactive: 0.058
PGAM5 (UniProt Q96HS1)	inactive: 0.068	inactive: 0.066	inactive: 0.194	inactive: 0.04	inactive: -0.006	inactive: 0.019	inactive: -0.098	inactive: 0.13	inactive: 0.187	inactive: -0.093
PIK3R1 (UniProt P27986)	inactive: -0.08	inactive: -0.056	inactive: -0.016	inactive: -0.021	inactive: -0.026	inactive: 0.029	inactive: 0.007	inactive: -0.013	inactive: 0.028	inactive: 0.126
PKN1 isoform 2 (UniProt Q16512)	active: -0.508	inactive: -0.141	inactive: -0.118	inactive: -0.128	inactive: 0.039	inactive: 0.042	inactive: 0.024	inactive: 0.024	inactive: -0.131	inactive: -0.157
PLD1 (UniProt Q13393)	inactive: -0.1	inactive: -0.224	inactive: -0.182	inactive: -0.035	inactive: 0.048	inactive: 0.042	inactive: 0.146	inactive: 0.098	inactive: -0.012	inactive: -0.243
PFKP (UniProt Q01813)	inactive: 0.004	inactive: 0.018	inactive: -0.013	inactive: -0.004	inactive: -0.024	inactive: 0.024	inactive: -0.031	inactive: -0.074	inactive: -0.054	inactive: -0.006
